In publication doi:10.1101/2023.01.28.526069:
These are yes or no findings as the source states them, for the method shown. For some assays here: Binding seen in cells or lysates may run through a third protein. Some entries that bind do so weakly or less than the wild type.

Protein sequences, listed by entry. Tags and fused reporters are not part of them.
UniProt Q16665: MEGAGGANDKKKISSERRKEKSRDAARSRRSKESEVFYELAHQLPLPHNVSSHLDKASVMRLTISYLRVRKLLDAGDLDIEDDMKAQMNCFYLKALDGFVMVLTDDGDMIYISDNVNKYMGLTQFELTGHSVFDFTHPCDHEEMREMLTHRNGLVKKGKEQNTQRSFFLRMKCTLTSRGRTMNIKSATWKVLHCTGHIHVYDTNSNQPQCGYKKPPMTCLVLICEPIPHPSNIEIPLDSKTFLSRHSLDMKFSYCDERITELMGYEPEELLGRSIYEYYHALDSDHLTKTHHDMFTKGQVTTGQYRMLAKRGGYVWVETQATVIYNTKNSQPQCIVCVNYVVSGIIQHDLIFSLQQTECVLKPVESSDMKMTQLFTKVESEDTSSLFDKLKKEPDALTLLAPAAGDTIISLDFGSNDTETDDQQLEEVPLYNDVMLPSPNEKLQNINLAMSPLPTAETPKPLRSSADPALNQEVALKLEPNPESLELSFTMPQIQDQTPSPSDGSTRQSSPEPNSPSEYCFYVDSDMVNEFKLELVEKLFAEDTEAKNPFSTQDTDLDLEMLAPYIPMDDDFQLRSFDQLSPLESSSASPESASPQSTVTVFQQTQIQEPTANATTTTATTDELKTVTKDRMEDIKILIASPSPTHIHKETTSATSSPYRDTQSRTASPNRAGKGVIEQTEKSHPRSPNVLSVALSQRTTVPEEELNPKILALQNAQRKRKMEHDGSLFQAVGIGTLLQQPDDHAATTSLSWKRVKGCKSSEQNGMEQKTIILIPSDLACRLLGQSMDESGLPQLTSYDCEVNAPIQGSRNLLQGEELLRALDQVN

Experiments:
[1] = target: T1, minichromosome maintenance complex component 3 (MCM3) (human (endogenous in KYSE450 and KYSE410 ESCC cells)) (UniProt P25205); assay: co-IP
T1 sequence: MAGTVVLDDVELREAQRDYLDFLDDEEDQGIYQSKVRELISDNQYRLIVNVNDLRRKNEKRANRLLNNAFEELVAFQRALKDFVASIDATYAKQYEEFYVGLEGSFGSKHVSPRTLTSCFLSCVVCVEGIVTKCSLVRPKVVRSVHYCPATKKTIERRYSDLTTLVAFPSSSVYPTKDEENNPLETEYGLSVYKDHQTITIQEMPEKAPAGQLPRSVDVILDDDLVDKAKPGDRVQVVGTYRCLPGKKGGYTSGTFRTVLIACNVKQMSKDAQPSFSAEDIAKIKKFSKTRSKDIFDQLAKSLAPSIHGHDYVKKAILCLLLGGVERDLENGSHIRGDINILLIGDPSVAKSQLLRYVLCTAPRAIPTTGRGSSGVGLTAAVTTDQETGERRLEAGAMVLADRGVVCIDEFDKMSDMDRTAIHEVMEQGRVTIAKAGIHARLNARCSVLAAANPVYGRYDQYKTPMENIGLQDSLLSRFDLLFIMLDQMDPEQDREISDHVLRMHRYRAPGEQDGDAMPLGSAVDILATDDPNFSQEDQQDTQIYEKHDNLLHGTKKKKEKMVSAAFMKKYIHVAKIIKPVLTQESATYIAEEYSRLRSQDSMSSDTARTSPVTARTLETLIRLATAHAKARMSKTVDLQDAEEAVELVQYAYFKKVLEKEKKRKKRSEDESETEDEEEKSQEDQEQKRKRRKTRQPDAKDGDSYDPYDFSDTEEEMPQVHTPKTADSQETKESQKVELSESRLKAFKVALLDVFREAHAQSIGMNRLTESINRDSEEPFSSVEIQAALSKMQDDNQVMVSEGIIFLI

[2] = target: T2, purified MCM3 protein (pGEX-6P-1-MCM3) (UniProt P25205); assay: co-IP
T2 sequence: T1 sequence

binding [1]	binding [2]	Substance
binds	–	hypoxia-inducible factor 1α (HIF-1α) (from UniProt Q16665 1-826)
–	binds	purified HIF-1α protein (pGEX-6P-1-HIF-1α) (from UniProt Q16665 1-826)
